Reference: paper PMC9987799
No constants are given. Whether binding was seen depends on the method and setting. For some of these results: Binding calls can cover weak binding; strength is not graded here. For some of these results: Sequences can lack the tags named with a protein. For some of these results: In cells and extracts the contact can be indirect. Blank lines part the entries; values can stand above or below the binder they belong to.

Columns and labels:
[1] = molecular target: GFP-NLS-EDC4(630–1437); assay: two-hybrid; fluorescence-based mammalian two-hybrid: bait EDC4 (or a fragment) fused to the SV40 NLS forms nuclear dots in transfected HEp-2 cells; prey scored by immunofluorescence for co-localisation in nuclear dots 24 h after transfection; three transfections, at least 30 cells each, mean +/- …
[2] = molecular target: GFP-EDC4(630–1437); assay: co-IP; HEK293 cells transfected; lysis in 25 mM Tris-HCl pH 7.4, 150 mM NaCl, 1 mM EDTA, 1% NP-40, 5% glycerol; GFP fusion proteins precipitated with GFP-Trap magnetic agarose; blot with anti-mCh
[3] = molecular target: GFP-EDC4; assay: as above

binding [1]: binds
B1: CCHCR1-Myc (protein, UniProt Q8TD31 1-782)
chain: MFPPSGSTGLIPPSHFQARPLSTLPRMAPTWLSDIPLVQPPGHQDVSERRLDTQRPQVTMWERDVSSDRQEPGRRGRSWGLEGSQALSQQAEVIVRQLQELRRLEEEVRLLRETSLQQKMRLEAQAMELEALARAEKAGRAEAEGLRAALAGAEVVRKNLEEGSQRELEEVQRLHQEQLSSLTQAHEEALSSLTSKAEGLEKSLSSLETRRAGEAKELAEAQREAELLRKQLSKTQEDLEAQVTLVENLRKYVGEQVPSEVHSQTWELERQKLLETMQHLQEDRDSLHATAELLQVRVQSLTHILALQEEELTRKVQPSDSLEPEFTRKCQSLLNRWREKVFALMVQLKAQELEHSDSVKQLKGQVASLQEKVTSQSQEQAILQRSLQDKAAEVEVERMGAKGLQLELSRAQEARRRWQQQTASAEEQLRLVVNAVSSSQIWLETTMAKVEGAAAQLPSLNNRLSYAVRKVHTIRGLIARKLALAQLRQESCPLPPPVTDVSLELQQLREERNRLDAELQLSARLIQQEVGRAREQGEAERQQLSKVAQQLEQELQQTQESLASLGLQLEVARQGQQESTEEAASLRQELTQQQELYGQALQEKVAEVETRLREQLSDTERRLNEARREHAKAVVSLRQIQRRAAQEKERSQELRRLQEEARKEEGQRLARRLQELERDKNLMLATLQQEGLLSRYKQQRLLTVLPSLLDKKKSVVSSPRPPECSASAPVAAAVPTRESIKGSLSVLLDDLQDLSEAISKEEAVCQGDNLDRCSSSNPQMSS

binding [2]: no binding | binding [3]: binds
B2: mCh-XRN1(1232–1706) (domain or fragment, UniProt Q8IZH2 1232-1706)
chain: EFCNIWQSLQGSGKMQYFQPTIQEKGAVLPQEISQVNQHHKSGFNDNSVKYQQRKHDPHRKFKEECKSPKAECWSQKMSNKQPNSGIENFLASLNISKENEVQSSHHGEPPSEEHLSPQSFAMGTRMLKEILKIDGSNTVDHKNEIKQIANEIPVSSNRRDEYGLPSQPKQNKKLASYMNKPHSANEYHNVQSMDNMCWPAPSQIPPVSTPVTELSRICSLVGMPQPDFSFLRMPQTMTVCQVKLSNGLLVHGPQCHSENEAKEKAALFALQQLGSLGMNFPLPSQVFANYPSAVPPGTIPPAFPPPTGWDHYGSNYALGAANIMPSSSHLFGSMPWGPSVPVPGKPFHHTLYSGTMPMAGGIPGGVHNQFIPLQVTKKRVANKKNFENKEAQSSQATPVQTSQPDSSNIVKVSPRESSSASLKSSPIAQPASSFQVETASQGHSISHHKSTPISSSRRKSRKLAVNFGVSKPSE

binding [1]: no binding
B3: Myc-PATL1(398–770) (domain or fragment, UniProt Q86TB9 398-770)
chain: KDPYANLMLQREKDWVSKIQMMQLQSTDPYLDDFYYQNYFEKLEKLSAAEEIQGDGPKKERTKLITPQVAKLEHAYKPVQFEGSLGKLTVSSVNNPRKMIDAVVTSRSEDDETKEKQVRDKRRKTLVIIEKTYSLLLDVEDYERRYLLSLEEERPALMDDRKHKICSMYDNLRGKLPGQERPSDDHFVQIMCIRKGKRMVARILPFLSTEQAADILMTTARNLPFLIKKDAQDEVLPCLLSPFSLLLYHLPSVSITSLLRQLMNLPQSAATPALSNPHLTAVLQNKFGLSLLLILLSRGEDLQSSDPATESTQNNQWTEVMFMATRELLRIPQAALAKPISIPTNLVSLFSRYVDRQKLNLLETKLQLVQGIR
